From paper PMC7552397, “Crystal structure of caspase-11 CARD provides insights into caspase-11 activation” (Cell Discovery, 2020)
These are yes or no findings as the source states them, for the method shown. Sequences can lack the tags named with a protein. Values belong to the binder of their own block, whether it stands above or below them.

What was measured:
[1] = biological target: MBP-tagged caspase-11 CARD, residues 11–59 (WT-CARD^aa11–59) (murine) (UniProt P70343); assay: SEC; gel filtration on Superdex 200, 250 mM NaCl, 10 mM Tris-HCl pH 8.0; MBP-tagged proteins, 1 mg each where told; both purified
[2] = biological target: MBP-tagged caspase-11 CARD, residues 1–59 (WT-CARD^aa1–59) (murine) (UniProt P70343); assay: as above
[3] = biological target: MBP-tagged caspase-11 CARD, residues 11–101, V13A L14A L17A V21A (VLLV-CARD^aa11–101) (murine) (UniProt P70343); assay: SEC-MALS; DAWN HELEOS 8+, room temperature, samples at 1 mg/mL in 250 mM NaCl, 10 mM Tris-HCl pH 8.0; ASTRA analysis; both purified
[4] = biological target: MBP-tagged caspase-11 CARD, residues 11–101, V13A L14A L17A V21A (VLLV-CARD^aa11–101) (murine) (UniProt P70343); assay: SEC; gel filtration on Superdex 200, 250 mM NaCl, 10 mM Tris-HCl pH 8.0; MBP-tagged proteins, 1 mg each where told; both purified

binding [1]: no binding (tested: 1 mg)
Binder: LKVLEQLGKEVLTEYLEKLVQSNVLKLKEEDKQKFNNAERSDKRWVFVD (domain or fragment, UniProt P70343 11-59) [MBP-tagged caspase-11 CARD, residues 11–59 (WT-CARD^aa11–59)]

binding [2]: no binding (tested: 1 mg)
B1: MBP-tagged caspase-11 CARD, residues 1–59 (WT-CARD^aa1–59) (domain or fragment, UniProt P70343 1-59)
chain: MAENKHPDKPLKVLEQLGKEVLTEYLEKLVQSNVLKLKEEDKQKFNNAERSDKRWVFVD

binding [3]: no binding (tested: 1 mg/mL)
binding [4]: no binding
B2: MBP-tagged caspase-11 CARD, residues 11–101, V13A L14A L17A V21A (VLLV-CARD^aa11–101) (domain or fragment, UniProt P70343 11-101)
chain: LKAAEQAGKEALTEYLEKLVQSNVLKLKEEDKQKFNNAERSDKRWVFVDAMKKKHSKVGEMLLQTFFSVDPGSHHGEANLEMEEPEESLNT
